{"sequences": {"note": "Amino acid sequences for entries named in this document (tags omitted).", "UniProt P27144": "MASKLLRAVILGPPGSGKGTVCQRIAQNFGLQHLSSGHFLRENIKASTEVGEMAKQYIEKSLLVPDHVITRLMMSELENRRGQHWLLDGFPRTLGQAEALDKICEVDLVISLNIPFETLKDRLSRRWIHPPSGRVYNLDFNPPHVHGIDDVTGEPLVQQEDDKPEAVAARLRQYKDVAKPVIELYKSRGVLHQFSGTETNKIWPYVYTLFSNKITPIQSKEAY"}, "source": "paper PMC12217281", "binders": {"B1": {"name": "nicotinamide nucleotide transhydrogenase (NNT) (protein, UniProt Q13423 44-1086)", "chain": "CKAPVKPGIPYKQLTVGVPKEIFQNEKRVALSPAGVQNLVKQGFNVVVESGAGEASKFSDDHYRVAGAQIQGAKEVLASDLVVKVRAPMVNPTLGVHEADLLKTSGTLISFIYPAQNPELLNKLSQRKTTVLAMDQVPRVTIAQGYDALSSMANIAGYKAVVLAANHFGRFFTGQITAAGKVPPAKILIVGGGVAGLASAGAAKSMGAIVRGFDTRAAALEQFKSLGAEPLEVDLKESGEGQGGYAKEMSKEFIEAEMKLFAQQCKEVDILISTALIPGKKAPVLFNKEMIESMKEGSVVVDLAAEAGGNFETTKPGELYIHKGITHIGYTDLPSRMATQASTLYSNNITKLLKAISPDKDNFYFDVKDDFDFGTMGHVIRGTVVMKDGKVIFPAPTPKNIPQGAPVKQKTVAELEAEKAATITPFRKTMSTASAYTAGLTGILGLGIAAPNLAFSQMVTTFGLAGIVGYHTVWGVTPALHSPLMSVTNAISGLTAVGGLALMGGHLYPSTTSQGLAALAAFISSVNIAGGFLVTQRMLDMFKRPTDPPEYNYLYLLPAGTFVGGYLAALYSGYNIEQIMYLGSGLCCVGALAGLSTQGTARLGNALGMIGVAGGLAATLGVLKPGPELLAQMSGAMALGGTIGLTIAKRIQISDLPQLVAAFHSLVGLAAVLTCIAEYIIEYPHFATDAAANLTKIVAYLGTYIGGVTFSGSLIAYGKLQGLLKSAPLLLPGRHLLNAGLLAASVGGIIPFMVDPSFTTGITCLGSVSALSAVMGVTLTAAIGGADMPVVITVLNSYSGWALCAEGFLLNNNLLTIVGALIGSSGAILSYIMCVAMNRSLANVILGGYGTTSTAGGKPMEISGTHTEINLDNAIDMIREANSIIITPGYGLCAAKAQYPIADLVKMLTEQGKKVRFGIHPVAGRMPGQLNVLLAEAGVPYDIVLEMDEINHDFPDTDLVLVIGANDTVNSAAQEDPNSIIAGMPVLEVWKSKQVIVMKRSLGVGYAAVDNPIFYKPNTAMLLGDAKKTCDALQAKVRESYQK"}}, "target": "adenylate kinase 4 (AK4) (human (endogenous in 6-10B)) (UniProt P27144)", "assay": "co-IP; 6-10B lysate in IP lysis buffer, anti-AK4 antibody (anti-IgG as negative control) at 4 °C overnight, Protein A/G Sepharose beads, western blotting", "note": "No constants are given. Whether binding was seen depends on the method and setting. In cells and extracts the contact can be indirect. Some binding calls cover weakened binding; strength is not graded here."}
{"binder": "B1", "values": [{"measurement": "binding", "result": "binds"}]}
